For 39 compounds, score and protection results are on record in PubChem BioAssay.

Molecules are shown by their SMILES. “And” between values parts separate entries of the source, which are not always exact repeats. Equal values may be shown once. This is one part of the list. The source made no clear call on entries shown without one. For part of these data: Entries with a potency or affinity are not part of this list. Residues, ends and D or L forms follow the SMILES beside them. *: point of attachment. For = O=C*

The first test can be described thus: PubChem AID 1600. The following applies: yeast Parkinson's disease model, growth rescue; stronger effect = higher value.
Regarding `NC[C@@H]1O[C@H](O[C@@H]2[C@@H](CO)OC(O[C@@H]3[C@@H](O)[C@H](N)C[C@H](N)[C@H]3OC3O[C@H](CO)[C@@H](O)[C@H](O)[C@H]3N)[C@@H]2O)[C@H](N)[C@@H](O)[C@@H]1O` (stereo partly drawn), the score came out at 0.23.
As to `CC1(C)O[C@@H]2CC3C4C[C@H](F)C5=CC(=O)CC[C@]5(C)C4[C@@H](O)C[C@]3(C)[C@]2(C(=O)CO)O1` (stereo partly drawn), the score is -1.19.
For `CCCOc1ccccc1-c1nc2n[nH]nc2c(=O)[nH]1`, the score was -0.1.
In the case of `Nc1ncnc2c1ncn2[C@@H]1O[C@H](CO)[C@@H](O)[C@@H]1O`, the score was determined as 0.26.
`CO[C@@]1(NC(=O)Cc2cccs2)C(=O)N2C(C(=O)O)=C(COC(N)=O)CS[C@@H]21`: the score came out at 0.561.
In turn, `O=C(O)c1ccccc1Nc1cccc(C(F)(F)F)c1` had a score of -0.78.
Compound `CN(C)CCOC(=O)COc1ccc(Cl)cc1` registered a score of 0.009.
In the case of `CCn1cc(C(=O)O)c(=O)c2cnc(N3CCNCC3)nc21`, the score amounted to 3.58.
`CC(=O)NO` registered a score of 0.211.
The compound `CSCCC(NC=O)C(=O)NC(CC(C)C)C(=O)NC(Cc1ccccc1)C(=O)O` (stereo not drawn) came in with a score of -0.125.
For `CO[C@H]1/C=C/O[C@@]2(C)Oc3c(C)c(O)c4c(O)c(c(C=NN5CCN(C)CC5)c(O)c4c3C2=O)NC(=O)/C(C)=C\C=C\C(C)[C@H](O)[C@@H](C)[C@@H](O)[C@@H](C)[C@@H](OC(C)=O)[C@@H]1C` (stereo partly drawn), the score was -1.43.
The compound `C[N+](C)(C)CCCCCC[N+](C)(C)C` registered a score of -0.01.
Compound `CCN(CC)CCNC(=O)c1ccc(N)cc1` registered a score of 4.94.
In turn, `O=C(Cn1ccnc1[N+](=O)[O-])NCCO` came in with a score of 0.454.
On the same count and under the same terms, then `Cc1onc(-c2ccccc2)c1C(=O)NC1C(=O)N2[C@@H]1SC(C)(C)[C@@H]2C(=O)O` (stereo partly drawn), with -0.7.
On to `O=C(COc1ccc(Cl)cc1)N1CCN(Cc2ccc3c(c2)OCO3)CC1`, for which the score was -1.09.
`NC(=O)c1cnccn1` gave a score of -0.271.
In turn, `CC1=C2C(=CO[C@H](C)[C@H]2C)C(=O)C(C(=O)O)=C1O` displayed a score of 0.527.
The compound `O=C(O)c1cc(=O)c2ccccc2o1` gave a score of -0.778.
In the case of `COc1ccc2c3c1O[C@H]1C[C@@H](O)C=C[C@@]31CCN(C)C2`, the score is -0.088.
Compound `CCN(CC)CCOc1ccc2c(c1)C(=O)c1cc(OCCN(CC)CC)ccc1-2` displayed a score of 1.35.
As for `C=C(C)[C@H]1CC=C(C(=O)O)CC1`, the score was -0.674.
`CC(=O)OCC[N+](C)(C)C` returned a score of -0.464.
The same measure, in the same setting: then `Oc1cccc(O)c1`, with 0.237; and `COc1ccc([C@@H]2CC(=O)c3c(O)cc(O)cc3O2)cc1O`, with 2.22; and `CC(C[N+](C)(C)C)OC(N)=O` (stereo not drawn), with -0.087.
As for `N=c1nc(N2CCCCC2)cc(N)n1O`, the score is -0.91.
For `CC[C@H]1OC(=O)[C@H](C)[C@@H](O[C@H]2C[C@@](C)(OC)[C@@H](O)[C@H](C)O2)[C@H](C)[C@@H](O[C@@H]2O[C@H](C)C[C@H](N(C)C)[C@H]2O)[C@](C)(O)C[C@@H](C)C(=O)[C@H](C)[C@@H](O)[C@]1(C)O`, the score was 1.76 and -1.21 and -3.41.
Still for that read-out and setting: then `CSCCC(NC=O)C(=O)NC(Cc1ccccc1)C(=O)O` (stereo not drawn) (For-Met-Phe-OH; configuration not given here), with 0.361; and `CC(=O)N[C@@H](Cc1c[nH]c2ccccc12)C(=O)O`, with -0.328; and `CC1=NN(c2ccccc2)C(=O)C1`, with -0.437.
For `CN=C(NC#N)NCCSCc1nc[nH]c1C`, the score was -1.22.
On to `Nc1ccc(C(=O)O)c(O)c1`, for which the score is -0.707.
In turn, `NC(=O)NO` displayed a score of 0.634.
`CC[C@]12CCCN3CCc4c(n(c5ccccc45)[C@](O)(C(=O)OC)C1)[C@@H]32` gave a score of -1.36.
`CCCC(C(=O)OCCN(CC)CC)(c1ccccc1)c1ccccc1` came in with a score of -2.6.
On the same count and under the same terms, then `CCC[C@@H]1C[C@@H](C(=O)NC(C(C)Cl)C2O[C@H](SC)[C@H](O)[C@@H](O)[C@H]2O)N(C)C1` (stereo partly drawn), with -0.347.
The compound `CC(=O)Oc1cccc(O)c1` had a score of 1.88.
`CCCN(CCC)S(=O)(=O)c1ccc(C(=O)O)cc1` gave a score of 0.037.

The nature of the next test: suppressors of mutant SOD1 cell death (AID 1601). The following applies: mutant SOD1 cell death rescue, 1 uM; stronger effect = higher value.
As for `NC[C@@H]1O[C@H](O[C@@H]2[C@@H](CO)OC(O[C@@H]3[C@@H](O)[C@H](N)C[C@H](N)[C@H]3OC3O[C@H](CO)[C@@H](O)[C@H](O)[C@H]3N)[C@@H]2O)[C@H](N)[C@@H](O)[C@@H]1O` (stereo partly drawn), the protection was -14.1%.
With `CC1(C)O[C@@H]2CC3C4C[C@H](F)C5=CC(=O)CC[C@]5(C)C4[C@@H](O)C[C@]3(C)[C@]2(C(=O)CO)O1` (stereo partly drawn), the protection was -5.49%.
On the same count and under the same terms, then `CCCOc1ccccc1-c1nc2n[nH]nc2c(=O)[nH]1`, with 11.8%; and `Nc1ncnc2c1ncn2[C@@H]1O[C@H](CO)[C@@H](O)[C@@H]1O`, with -23.9%.
Take `CO[C@@]1(NC(=O)Cc2cccs2)C(=O)N2C(C(=O)O)=C(COC(N)=O)CS[C@@H]21`: the protection was found to be 2.79%.
In the case of `O=C(O)c1ccccc1Nc1cccc(C(F)(F)F)c1`, the protection was 21.7%.
Same read-out and setting: then `CN(C)CCOC(=O)COc1ccc(Cl)cc1`, with -24.5%; and `CCn1cc(C(=O)O)c(=O)c2cnc(N3CCNCC3)nc21`, with -13.2%.
With `CC(=O)NO`, the protection was -4.44%.
Regarding `CSCCC(NC=O)C(=O)NC(CC(C)C)C(=O)NC(Cc1ccccc1)C(=O)O` (stereo not drawn), the protection was 13.9%.
For the compound `CO[C@H]1/C=C/O[C@@]2(C)Oc3c(C)c(O)c4c(O)c(c(C=NN5CCN(C)CC5)c(O)c4c3C2=O)NC(=O)/C(C)=C\C=C\C(C)[C@H](O)[C@@H](C)[C@@H](O)[C@@H](C)[C@@H](OC(C)=O)[C@@H]1C` (stereo partly drawn), the protection stood at 3.53%.
As for `C[N+](C)(C)CCCCCC[N+](C)(C)C`, the protection is 5.01%.
As to `CCN(CC)CCNC(=O)c1ccc(N)cc1`, the protection is -21%.
In the case of `O=C(Cn1ccnc1[N+](=O)[O-])NCCO`, the protection is -25.6%.
As to `Cc1onc(-c2ccccc2)c1C(=O)NC1C(=O)N2[C@@H]1SC(C)(C)[C@@H]2C(=O)O` (stereo partly drawn), the protection is -1.05%.
Turning to `O=C(COc1ccc(Cl)cc1)N1CCN(Cc2ccc3c(c2)OCO3)CC1`, the protection was -3.11%.
Consider `NC(=O)c1cnccn1`, for which the protection was -3.05%.
`CC1=C2C(=CO[C@H](C)[C@H]2C)C(=O)C(C(=O)O)=C1O`: the protection is -11.2%.
On the same count and under the same terms, then `O=C(O)c1cc(=O)c2ccccc2o1`, with -8.68%; and `COc1ccc2c3c1O[C@H]1C[C@@H](O)C=C[C@@]31CCN(C)C2`, with -3.37%; and `CCN(CC)CCOc1ccc2c(c1)C(=O)c1cc(OCCN(CC)CC)ccc1-2`, with -19.6%.
As to `C=C(C)[C@H]1CC=C(C(=O)O)CC1`, the protection was -5.83%.
As for `CC(=O)OCC[N+](C)(C)C`, the protection was -5.8%.
As for `Oc1cccc(O)c1`, the protection was -21%.
Take `COc1ccc([C@@H]2CC(=O)c3c(O)cc(O)cc3O2)cc1O`: the protection is 10.3%.
In the case of `CC(C[N+](C)(C)C)OC(N)=O` (stereo not drawn), the protection is -3.14%.
For the compound `N=c1nc(N2CCCCC2)cc(N)n1O`, the protection was -23%.
In the case of `CC[C@H]1OC(=O)[C@H](C)[C@@H](O[C@H]2C[C@@](C)(OC)[C@@H](O)[C@H](C)O2)[C@H](C)[C@@H](O[C@@H]2O[C@H](C)C[C@H](N(C)C)[C@H]2O)[C@](C)(O)C[C@@H](C)C(=O)[C@H](C)[C@@H](O)[C@]1(C)O`, the protection is -2.67% and 20.2% and -28.7%.
On the same count and under the same terms, then `CSCCC(NC=O)C(=O)NC(Cc1ccccc1)C(=O)O` (stereo not drawn) (For-Met-Phe-OH; configuration not given here), with 9.54%; and `CC(=O)N[C@@H](Cc1c[nH]c2ccccc12)C(=O)O`, with -1.24%; and `CC1=NN(c2ccccc2)C(=O)C1`, with -8.67%.
For the compound `CN=C(NC#N)NCCSCc1nc[nH]c1C`, the protection was -0.84%.
As to `Nc1ccc(C(=O)O)c(O)c1`, the protection amounted to 2.94%.
Consider `NC(=O)NO`, for which the protection was -18.3%.
On the same count and under the same terms, then `CC[C@]12CCCN3CCc4c(n(c5ccccc45)[C@](O)(C(=O)OC)C1)[C@@H]32`, with -7.37%; and `CCCC(C(=O)OCCN(CC)CC)(c1ccccc1)c1ccccc1`, with -24.8%; and `CCC[C@@H]1C[C@@H](C(=O)NC(C(C)Cl)C2O[C@H](SC)[C@H](O)[C@@H](O)[C@H]2O)N(C)C1` (stereo partly drawn), with 1.63%.
On the same count and under the same terms, then `CC(=O)Oc1cccc(O)c1`, with -20.2%.
On to `CCCN(CCC)S(=O)(=O)c1ccc(C(=O)O)cc1`, for which the protection is -24.2%.
